The supplement of paper PMC12823440, “Inhibitors supercharge kinase turnover through native proteolytic circuits” (Nature, 2025)
Structures can show the parent of a compound that is named as a salt. The list shows a part of the results. The calls rarely recur for the same compound in another form.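 Kinases, fused to nanoluciferase, were expressed in K562 cells; luminescence was measured every 4 h from 2 to 18 h as percent of control (DMSO = 100%, positive control = 0%). A time point is decreased if signal falls significantly (2 sigma). Hits were called by the authors by a rule that is not shown; the count of time points alone does not decide it.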

Sequences of proteins named here, by UniProt entry; tags and fusion partners are left off. A change or cut given only in a name is not applied to a line headed by its entry.
UniProt O75460: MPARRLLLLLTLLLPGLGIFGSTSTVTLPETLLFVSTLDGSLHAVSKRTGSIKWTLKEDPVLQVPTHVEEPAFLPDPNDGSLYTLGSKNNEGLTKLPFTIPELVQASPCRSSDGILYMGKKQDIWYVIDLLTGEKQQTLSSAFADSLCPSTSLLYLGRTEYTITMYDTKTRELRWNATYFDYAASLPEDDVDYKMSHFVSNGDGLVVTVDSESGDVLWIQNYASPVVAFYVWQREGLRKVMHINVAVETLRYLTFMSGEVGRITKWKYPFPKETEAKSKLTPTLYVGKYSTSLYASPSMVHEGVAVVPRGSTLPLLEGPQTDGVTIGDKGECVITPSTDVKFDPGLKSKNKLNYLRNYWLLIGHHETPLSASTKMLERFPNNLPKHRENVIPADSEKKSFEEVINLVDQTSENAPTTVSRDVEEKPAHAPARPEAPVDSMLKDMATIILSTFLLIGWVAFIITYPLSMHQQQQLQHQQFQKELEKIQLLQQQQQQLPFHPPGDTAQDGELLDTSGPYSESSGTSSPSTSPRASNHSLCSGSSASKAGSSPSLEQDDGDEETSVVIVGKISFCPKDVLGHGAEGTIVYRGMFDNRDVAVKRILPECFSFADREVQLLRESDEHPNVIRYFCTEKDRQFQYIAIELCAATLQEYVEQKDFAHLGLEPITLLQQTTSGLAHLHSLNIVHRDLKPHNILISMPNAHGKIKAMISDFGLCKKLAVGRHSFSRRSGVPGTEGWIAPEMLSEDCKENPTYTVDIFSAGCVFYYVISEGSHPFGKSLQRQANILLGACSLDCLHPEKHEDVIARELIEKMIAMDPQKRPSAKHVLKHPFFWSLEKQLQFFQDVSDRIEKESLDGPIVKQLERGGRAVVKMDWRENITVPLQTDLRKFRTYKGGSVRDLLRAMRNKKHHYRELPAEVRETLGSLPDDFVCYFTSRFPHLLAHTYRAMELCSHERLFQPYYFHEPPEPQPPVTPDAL
UniProt P11362, whole entry, looked up: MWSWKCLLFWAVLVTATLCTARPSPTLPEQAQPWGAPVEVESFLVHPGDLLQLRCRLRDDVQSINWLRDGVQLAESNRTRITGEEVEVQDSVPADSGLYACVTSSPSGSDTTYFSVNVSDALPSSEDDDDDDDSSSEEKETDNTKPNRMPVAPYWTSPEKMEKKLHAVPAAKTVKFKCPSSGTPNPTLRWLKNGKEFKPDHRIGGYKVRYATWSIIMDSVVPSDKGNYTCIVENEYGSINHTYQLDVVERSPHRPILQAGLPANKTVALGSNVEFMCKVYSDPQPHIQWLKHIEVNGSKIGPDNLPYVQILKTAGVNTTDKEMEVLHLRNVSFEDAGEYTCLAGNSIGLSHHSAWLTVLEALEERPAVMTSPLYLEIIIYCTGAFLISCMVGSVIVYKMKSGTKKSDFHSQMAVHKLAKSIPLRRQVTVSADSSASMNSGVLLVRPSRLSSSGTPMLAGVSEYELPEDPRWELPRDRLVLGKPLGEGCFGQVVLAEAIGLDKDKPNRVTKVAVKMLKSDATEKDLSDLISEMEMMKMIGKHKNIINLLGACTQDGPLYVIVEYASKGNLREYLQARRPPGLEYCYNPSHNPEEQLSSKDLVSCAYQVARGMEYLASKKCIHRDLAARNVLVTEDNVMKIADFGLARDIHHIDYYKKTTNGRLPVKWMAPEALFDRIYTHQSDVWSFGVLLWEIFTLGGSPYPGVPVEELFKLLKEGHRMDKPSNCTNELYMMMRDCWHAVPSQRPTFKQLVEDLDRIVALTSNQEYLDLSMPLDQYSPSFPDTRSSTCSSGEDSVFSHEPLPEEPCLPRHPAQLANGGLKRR
UniProt P21802, whole entry, looked up: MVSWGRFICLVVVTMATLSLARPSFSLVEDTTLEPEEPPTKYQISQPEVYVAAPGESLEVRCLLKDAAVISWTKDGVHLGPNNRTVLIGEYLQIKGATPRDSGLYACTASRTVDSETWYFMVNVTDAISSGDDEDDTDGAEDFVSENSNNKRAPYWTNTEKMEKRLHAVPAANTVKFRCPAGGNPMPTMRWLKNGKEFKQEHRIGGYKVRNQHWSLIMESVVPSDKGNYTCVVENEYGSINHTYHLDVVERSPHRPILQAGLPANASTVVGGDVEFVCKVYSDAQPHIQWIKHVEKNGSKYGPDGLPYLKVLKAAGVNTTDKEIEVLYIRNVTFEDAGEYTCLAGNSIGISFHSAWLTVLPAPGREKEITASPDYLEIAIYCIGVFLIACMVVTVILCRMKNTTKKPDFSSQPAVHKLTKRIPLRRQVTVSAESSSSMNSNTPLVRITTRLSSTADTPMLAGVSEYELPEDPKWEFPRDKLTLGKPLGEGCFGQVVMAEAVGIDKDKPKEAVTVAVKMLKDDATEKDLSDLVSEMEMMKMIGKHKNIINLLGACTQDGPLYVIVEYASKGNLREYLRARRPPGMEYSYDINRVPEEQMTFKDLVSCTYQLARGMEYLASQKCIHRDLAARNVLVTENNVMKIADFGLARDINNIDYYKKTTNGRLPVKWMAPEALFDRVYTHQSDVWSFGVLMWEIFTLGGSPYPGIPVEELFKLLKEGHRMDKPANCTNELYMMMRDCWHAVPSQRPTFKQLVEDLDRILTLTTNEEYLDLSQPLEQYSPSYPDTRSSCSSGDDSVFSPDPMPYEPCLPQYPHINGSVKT
UniProt P22607, whole entry, looked up: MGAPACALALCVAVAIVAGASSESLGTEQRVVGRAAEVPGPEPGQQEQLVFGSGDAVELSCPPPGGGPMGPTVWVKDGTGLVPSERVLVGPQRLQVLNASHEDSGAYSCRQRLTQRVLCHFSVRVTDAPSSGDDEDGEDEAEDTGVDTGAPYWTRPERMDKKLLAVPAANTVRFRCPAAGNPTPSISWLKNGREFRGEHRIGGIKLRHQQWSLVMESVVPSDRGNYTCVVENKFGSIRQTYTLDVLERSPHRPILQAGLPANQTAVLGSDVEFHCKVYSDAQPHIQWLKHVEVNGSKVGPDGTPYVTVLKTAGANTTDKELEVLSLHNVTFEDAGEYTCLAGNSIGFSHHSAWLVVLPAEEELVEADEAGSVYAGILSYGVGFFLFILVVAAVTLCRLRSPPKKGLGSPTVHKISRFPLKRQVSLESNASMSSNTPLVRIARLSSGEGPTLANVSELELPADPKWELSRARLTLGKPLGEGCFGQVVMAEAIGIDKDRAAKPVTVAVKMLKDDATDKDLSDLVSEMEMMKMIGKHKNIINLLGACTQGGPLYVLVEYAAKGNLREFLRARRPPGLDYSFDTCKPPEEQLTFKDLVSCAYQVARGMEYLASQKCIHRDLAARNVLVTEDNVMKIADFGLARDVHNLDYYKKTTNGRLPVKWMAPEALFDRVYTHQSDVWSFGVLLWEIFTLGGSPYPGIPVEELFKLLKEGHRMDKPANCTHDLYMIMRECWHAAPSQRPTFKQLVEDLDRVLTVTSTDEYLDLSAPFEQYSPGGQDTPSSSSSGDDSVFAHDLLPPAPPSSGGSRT
UniProt P36888, whole entry: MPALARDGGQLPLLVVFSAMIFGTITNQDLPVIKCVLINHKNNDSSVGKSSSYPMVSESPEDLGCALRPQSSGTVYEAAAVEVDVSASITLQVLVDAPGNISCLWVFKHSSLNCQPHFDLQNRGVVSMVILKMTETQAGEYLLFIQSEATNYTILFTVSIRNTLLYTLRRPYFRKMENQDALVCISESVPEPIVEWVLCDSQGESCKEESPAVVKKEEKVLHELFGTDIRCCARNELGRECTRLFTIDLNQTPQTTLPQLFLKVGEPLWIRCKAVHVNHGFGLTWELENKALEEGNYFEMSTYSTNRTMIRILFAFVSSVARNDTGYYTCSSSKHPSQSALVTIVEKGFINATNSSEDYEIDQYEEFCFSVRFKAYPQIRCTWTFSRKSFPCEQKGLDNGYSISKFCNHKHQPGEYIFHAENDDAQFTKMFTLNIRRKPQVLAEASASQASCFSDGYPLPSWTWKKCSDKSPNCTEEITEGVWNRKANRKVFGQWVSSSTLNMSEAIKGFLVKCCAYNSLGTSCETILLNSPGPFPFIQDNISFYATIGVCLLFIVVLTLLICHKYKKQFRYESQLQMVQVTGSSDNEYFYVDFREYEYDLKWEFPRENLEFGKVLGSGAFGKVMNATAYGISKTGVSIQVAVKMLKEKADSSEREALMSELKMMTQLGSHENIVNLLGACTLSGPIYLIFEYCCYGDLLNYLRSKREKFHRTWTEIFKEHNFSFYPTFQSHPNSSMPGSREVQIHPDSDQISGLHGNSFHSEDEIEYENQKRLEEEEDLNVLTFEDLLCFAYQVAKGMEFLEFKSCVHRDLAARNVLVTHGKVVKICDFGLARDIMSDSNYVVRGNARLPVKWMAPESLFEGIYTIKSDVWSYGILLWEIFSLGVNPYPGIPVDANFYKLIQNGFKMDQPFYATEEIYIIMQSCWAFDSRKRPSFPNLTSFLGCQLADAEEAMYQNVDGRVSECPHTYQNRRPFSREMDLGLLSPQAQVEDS
UniProt P06241, whole entry, looked up: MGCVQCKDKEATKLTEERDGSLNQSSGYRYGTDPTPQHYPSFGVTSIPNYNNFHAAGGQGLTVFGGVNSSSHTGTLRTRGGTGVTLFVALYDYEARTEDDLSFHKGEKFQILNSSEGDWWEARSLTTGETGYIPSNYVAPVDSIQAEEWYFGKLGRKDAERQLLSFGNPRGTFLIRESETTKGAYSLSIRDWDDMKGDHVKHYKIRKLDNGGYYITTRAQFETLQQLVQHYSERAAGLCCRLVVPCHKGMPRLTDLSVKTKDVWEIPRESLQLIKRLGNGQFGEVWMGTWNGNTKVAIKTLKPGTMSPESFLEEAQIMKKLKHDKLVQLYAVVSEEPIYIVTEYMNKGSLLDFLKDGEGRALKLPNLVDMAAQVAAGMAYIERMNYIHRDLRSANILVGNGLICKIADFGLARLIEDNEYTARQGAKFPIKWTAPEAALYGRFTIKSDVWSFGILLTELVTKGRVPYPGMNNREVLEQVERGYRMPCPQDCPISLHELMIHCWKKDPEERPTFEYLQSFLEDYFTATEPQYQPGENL
UniProt P14616: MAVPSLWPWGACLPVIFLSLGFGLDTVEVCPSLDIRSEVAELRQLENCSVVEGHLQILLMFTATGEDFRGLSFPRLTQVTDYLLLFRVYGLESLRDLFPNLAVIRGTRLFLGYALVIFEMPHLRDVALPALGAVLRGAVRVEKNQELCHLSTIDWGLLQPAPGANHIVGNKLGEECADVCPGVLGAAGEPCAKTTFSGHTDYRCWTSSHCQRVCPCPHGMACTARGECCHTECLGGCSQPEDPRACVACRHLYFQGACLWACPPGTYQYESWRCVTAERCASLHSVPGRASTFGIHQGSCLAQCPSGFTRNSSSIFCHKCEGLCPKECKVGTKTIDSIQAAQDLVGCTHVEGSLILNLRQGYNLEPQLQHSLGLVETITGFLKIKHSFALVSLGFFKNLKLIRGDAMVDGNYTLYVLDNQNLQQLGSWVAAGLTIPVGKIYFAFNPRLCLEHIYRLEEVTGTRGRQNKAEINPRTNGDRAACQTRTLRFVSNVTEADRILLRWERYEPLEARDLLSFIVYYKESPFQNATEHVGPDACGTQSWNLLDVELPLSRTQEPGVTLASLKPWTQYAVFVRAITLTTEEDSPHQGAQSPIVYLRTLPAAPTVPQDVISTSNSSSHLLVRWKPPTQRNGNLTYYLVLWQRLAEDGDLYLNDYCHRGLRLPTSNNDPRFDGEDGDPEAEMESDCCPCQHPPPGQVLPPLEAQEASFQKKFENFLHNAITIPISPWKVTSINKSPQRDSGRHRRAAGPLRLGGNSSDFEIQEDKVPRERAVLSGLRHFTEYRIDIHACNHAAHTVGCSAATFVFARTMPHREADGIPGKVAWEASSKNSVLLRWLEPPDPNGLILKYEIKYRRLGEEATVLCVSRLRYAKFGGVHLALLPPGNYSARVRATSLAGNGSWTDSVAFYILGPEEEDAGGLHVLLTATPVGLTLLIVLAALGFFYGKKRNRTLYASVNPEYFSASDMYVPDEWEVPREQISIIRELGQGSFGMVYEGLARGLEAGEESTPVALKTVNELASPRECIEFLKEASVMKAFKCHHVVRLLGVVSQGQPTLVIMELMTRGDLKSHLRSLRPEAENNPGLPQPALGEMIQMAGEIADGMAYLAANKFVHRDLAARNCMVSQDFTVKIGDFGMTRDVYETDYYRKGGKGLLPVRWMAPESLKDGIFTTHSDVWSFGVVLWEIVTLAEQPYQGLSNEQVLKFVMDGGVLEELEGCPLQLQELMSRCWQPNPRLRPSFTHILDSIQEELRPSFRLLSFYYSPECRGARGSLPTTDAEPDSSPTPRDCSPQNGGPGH

Assays:
Experiment in all cases: kinase-Nluc reporter destabilization hit call (1 = scored as downregulated) (binary); higher = compound decreases kinase abundance
Conditions in all cases: K562; 2-18 h
ERN1 = ERN1 (UniProt O75460)
FGFR1 = FGFR1 (UniProt P11362)
FGFR2 = FGFR2 (UniProt P21802)
FGFR3 = FGFR3 (UniProt P22607)
FGR = FGR (UniProt P09769)
FLT3 = FLT3 (UniProt P36888)
FYN = FYN (UniProt P06241)
GSK3A = GSK3A (UniProt P49840)
HER2 = HER2 (UniProt P04626)
INSRR = INSRR (UniProt P14616)

| Compound | kinase-Nluc reporter destabilization hit call (ERN1) | kinase-Nluc reporter destabilization hit call (FGFR1) | kinase-Nluc reporter destabilization hit call (FGFR2) | kinase-Nluc reporter destabilization hit call (FGFR3) | kinase-Nluc reporter destabilization hit call (FGR) | kinase-Nluc reporter destabilization hit call (FLT3) | kinase-Nluc reporter destabilization hit call (FYN) | kinase-Nluc reporter destabilization hit call (GSK3A) | kinase-Nluc reporter destabilization hit call (HER2) | kinase-Nluc reporter destabilization hit call (INSRR) |
| --- | --- | --- | --- | --- | --- | --- | --- | --- | --- | --- |
| COc1ccc(Cn2cc(C(=O)N=Nc3c(O)[nH]c4c(C)cccc34)nn2)cc1 [MARK4 inhibitor 1] (10 µM) | inactive: 0 | inactive: 0 | inactive: 0 | inactive: 0 | inactive: 0 | inactive: 0 | inactive: 0 | inactive: 0 | inactive: 0 | inactive: 0 |
| CNC(=O)Nc1ccc(-c2cc(-c3ccnc(Nc4ccc(C)c(S(=O)(=O)N(C)C)c4)n3)ccn2)cc1 [hSMG-1 inhibitor 11e] (2.5 µM) | inactive: 0 | inactive: 0 | inactive: 0 | inactive: 0 | inactive: 0 | inactive: 0 | inactive: 0 | inactive: 0 | inactive: 0 | inactive: 0 |
| O=[N+]([O-])c1cc(C(F)(F)F)cc([N+](=O)[O-])c1NNC(=S)Nc1ccc(F)cc1 (10 µM) | inactive: 0 | inactive: 0 | inactive: 0 | inactive: 0 | inactive: 0 | inactive: 0 | inactive: 0 | inactive: 0 | inactive: 0 | inactive: 0 |
| COc1ccc([C@H]2c3[nH]c4ccc(Cl)cc4c3CCN2C(=O)Oc2ccc(Cl)cc2)cc1 (2.5 µM) | inactive: 0 | inactive: 0 | inactive: 0 | inactive: 0 | inactive: 0 | inactive: 0 | inactive: 0 | inactive: 0 | inactive: 0 | inactive: 0 |
| CCOc1cc(C(=O)N2CCC(N3CCN(C)CC3)CC2)ccc1Nc1ncc2c(n1)N(C1CCCC1)c1ccccc1C(=O)N2C (10 µM) | inactive: 0 | inactive: 0 | inactive: 0 | inactive: 0 | inactive: 0 | inactive: 0 | inactive: 0 | inactive: 0 | inactive: 0 | inactive: 0 |
| Cc1ccc(Oc2nc3cc(-c4ccc5c(ccn5C)c4)c(Cl)cc3[nH]2)cc1C(=O)O (10 µM) | inactive: 0 | inactive: 0 | inactive: 0 | inactive: 0 | inactive: 0 | inactive: 0 | inactive: 0 | inactive: 0 | inactive: 0 | inactive: 0 |
| O=C1NC(=O)/C(=C/c2ccc3c(c2)OC(F)(F)O3)S1 (10 µM) | inactive: 0 | inactive: 0 | inactive: 0 | inactive: 0 | inactive: 0 | inactive: 0 | inactive: 0 | inactive: 0 | inactive: 0 | inactive: 0 |
| Cc1c(NC(=O)OC[C@@H]2COCCN2)cn2ncnc(Nc3ccc4c(cnn4Cc4cccc(F)c4)c3)c12 (10 µM) | inactive: 0 | inactive: 0 | inactive: 0 | inactive: 0 | inactive: 0 | inactive: 0 | inactive: 0 | inactive: 0 | inactive: 0 | inactive: 0 |
| O=C(O)CCc1ccc(O)c(O)c1 [Dihydrocaffeic acid] (10 µM) | inactive: 0 | inactive: 0 | inactive: 0 | inactive: 0 | inactive: 0 | inactive: 0 | inactive: 0 | inactive: 0 | inactive: 0 | inactive: 0 |
| C[C@@]1(O)CCC[C@H]1n1c(=O)c(C(F)F)cc2cnc(NC3CCN(S(C)(=O)=O)CC3)nc21 (2.5 µM) | inactive: 0 | inactive: 0 | inactive: 0 | inactive: 0 | inactive: 0 | inactive: 0 | inactive: 0 | inactive: 0 | inactive: 0 | inactive: 0 |
| CC(C)(C)NC(=O)c1cncn1C1CCN(c2ccc(-c3nnc(C(F)(F)F)o3)cn2)CC1 (10 µM) | inactive: 0 | inactive: 0 | inactive: 0 | inactive: 0 | inactive: 0 | inactive: 0 | inactive: 0 | inactive: 0 | inactive: 0 | inactive: 0 |
| CC(C)NC(=O)N1CC[C@H](NC2=Nc3cc(F)ccc3N(CC(F)F)c3ccc(Cl)cc32)C1 (10 µM) | inactive: 0 | inactive: 0 | inactive: 0 | inactive: 0 | inactive: 0 | inactive: 0 | inactive: 0 | inactive: 0 | inactive: 0 | inactive: 0 |
| COc1ccc(C(=C2C(=O)Nc3ccccc32)c2ccc(OC)cc2)cc1 (10 µM) | inactive: 0 | inactive: 0 | inactive: 0 | inactive: 0 | inactive: 0 | inactive: 0 | inactive: 0 | inactive: 0 | inactive: 0 | inactive: 0 |
| Cn1c(=O)c(F)c(Nc2ccc(I)cc2F)c2c(=O)n(C[C@@H](O)CO)cnc21 (10 µM) | inactive: 0 | inactive: 0 | inactive: 0 | inactive: 0 | inactive: 0 | active: 1 | inactive: 0 | inactive: 0 | inactive: 0 | inactive: 0 |
| O=C1c2ccc(Nc3ccc(F)cc3F)cc2CCc2ccc(OC[C@H](O)CO)cc21 [Skepinone-L] (2.5 µM) | inactive: 0 | inactive: 0 | inactive: 0 | inactive: 0 | inactive: 0 | inactive: 0 | inactive: 0 | inactive: 0 | inactive: 0 | inactive: 0 |
| COc1cc2ncn(-c3cc(OCc4ccccc4S(C)(=O)=O)c(C#N)s3)c2cc1OC (10 µM) | inactive: 0 | inactive: 0 | inactive: 0 | inactive: 0 | inactive: 0 | inactive: 0 | inactive: 0 | inactive: 0 | inactive: 0 | inactive: 0 |
| CN(CCNc1ccc2ncc(-c3ccc(C(N)=O)cc3)n2n1)C(=O)OC(C)(C)C (10 µM) | inactive: 0 | inactive: 0 | inactive: 0 | inactive: 0 | inactive: 0 | inactive: 0 | inactive: 0 | inactive: 0 | inactive: 0 | inactive: 0 |

| Compound | kinase-Nluc reporter destabilization hit call (ERN1) | kinase-Nluc reporter destabilization hit call (FGFR1) | kinase-Nluc reporter destabilization hit call (FGFR2) | kinase-Nluc reporter destabilization hit call (FGFR3) | kinase-Nluc reporter destabilization hit call (FGR) | kinase-Nluc reporter destabilization hit call (FLT3) | kinase-Nluc reporter destabilization hit call (FYN) | kinase-Nluc reporter destabilization hit call (GSK3A) | kinase-Nluc reporter destabilization hit call (HER2) | kinase-Nluc reporter destabilization hit call (INSRR) |
| --- | --- | --- | --- | --- | --- | --- | --- | --- | --- | --- |
| O=C(Nc1ccc(F)cc1F)[C@H](NC(=S)Nc1cc(C(F)(F)F)cc(C(F)(F)F)c1)c1ccccc1 (2.5 µM) | inactive: 0 | inactive: 0 | inactive: 0 | inactive: 0 | inactive: 0 | inactive: 0 | inactive: 0 | inactive: 0 | inactive: 0 | inactive: 0 |
| COc1ccc([C@@H]2CC(=O)c3c(O)cc(O)cc3O2)cc1O [Hesperetin] (10 µM) | inactive: 0 | inactive: 0 | inactive: 0 | inactive: 0 | inactive: 0 | inactive: 0 | inactive: 0 | inactive: 0 | inactive: 0 | inactive: 0 |
| CN(C)CCN(Cc1ccc(Cl)cc1)c1ccccn1 [Chloropyramine hydrochloride] (10 µM) | inactive: 0 | inactive: 0 | inactive: 0 | inactive: 0 | inactive: 0 | inactive: 0 | inactive: 0 | inactive: 0 | inactive: 0 | inactive: 0 |
| C[C@@H](c1ccc2nccn2c1)n1nnc2ncc(-c3cnn(C)c3)nc21 [Savolitinib] (10 µM) | inactive: 0 | inactive: 0 | inactive: 0 | inactive: 0 | inactive: 0 | inactive: 0 | inactive: 0 | inactive: 0 | inactive: 0 | inactive: 0 |
| O=C(Nc1ccc2[nH]nc(-c3ccncc3)c2c1)[C@@H]1CCN(CC(=O)N2CCN(c3ccc(-c4ncccn4)cc3)CC2)C1 (2.5 µM) | inactive: 0 | inactive: 0 | inactive: 0 | inactive: 0 | inactive: 0 | inactive: 0 | inactive: 0 | inactive: 0 | inactive: 0 | inactive: 0 |
| COc1cccc(-n2c(=O)[nH]c3cc(Cl)n(-c4ccc(-c5cccc(OC)c5O)cc4)c3c2=O)c1 (2.5 µM) | inactive: 0 | inactive: 0 | inactive: 0 | inactive: 0 | inactive: 0 | inactive: 0 | inactive: 0 | inactive: 0 | inactive: 0 | inactive: 0 |
| COc1cc2c[n+](C)c3c4cc5c(cc4ccc3c2cc1OC)OCO5 [Nitidine (chloride)] (2 µM) | inactive: 0 | inactive: 0 | inactive: 0 | inactive: 0 | inactive: 0 | inactive: 0 | inactive: 0 | inactive: 0 | inactive: 0 | inactive: 0 |
| CCn1c(-c2nonc2N)nc2cnc(Oc3cccc(NC(=O)c4ccc(OCCN5CCOCC5)cc4)c3)cc21 (10 µM) | inactive: 0 | inactive: 0 | inactive: 0 | inactive: 0 | inactive: 0 | inactive: 0 | inactive: 0 | inactive: 0 | inactive: 0 | inactive: 0 |
| O=C(/C=C/c1ccc(O)c(O)c1)c1ccc(O[C@@H]2O[C@H](CO)[C@@H](O)[C@H](O)[C@H]2O)c(O)c1O [Marein] (10 µM) | inactive: 0 | inactive: 0 | inactive: 0 | inactive: 0 | inactive: 0 | inactive: 0 | inactive: 0 | inactive: 0 | inactive: 0 | inactive: 0 |
| COCCO[C@@H]1[C@H](O)[C@@H](CO)O[C@H]1n1cnc2c(=O)[nH]c(N)nc21 [2′-O-(2-Methoxyethyl)guanosine] (10 µM) | inactive: 0 | inactive: 0 | inactive: 0 | inactive: 0 | inactive: 0 | inactive: 0 | inactive: 0 | inactive: 0 | inactive: 0 | inactive: 0 |
| O=C(Nc1nc2ccccc2[nH]1)c1cccc(-n2cccc2)c1 (10 µM) | inactive: 0 | inactive: 0 | inactive: 0 | inactive: 0 | inactive: 0 | inactive: 0 | inactive: 0 | inactive: 0 | inactive: 0 | inactive: 0 |
| CCn1c(=O)c(-c2ccc(-c3cncc(C)n3)cc2Cl)cc2cnc(NCCC3CCN(C)CC3)nc21 (10 µM) | inactive: 0 | inactive: 0 | inactive: 0 | inactive: 0 | inactive: 0 | inactive: 0 | inactive: 0 | inactive: 0 | inactive: 0 | inactive: 0 |
| CN(CC(=O)N(Cc1ccc(C2CCCCC2)cc1)c1ccc(C(=O)O)cc1)S(=O)(=O)c1c(F)c(F)c(F)c(F)c1F (2.5 µM) | inactive: 0 | inactive: 0 | inactive: 0 | inactive: 0 | inactive: 0 | inactive: 0 | inactive: 0 | inactive: 0 | inactive: 0 | inactive: 0 |
| COC1(C(=O)N2Cc3nc(Cl)nc(N[C@H](C)c4cc(N)cc(C(F)(F)F)c4)c3C2)CCOCC1 (10 µM) | inactive: 0 | inactive: 0 | inactive: 0 | inactive: 0 | inactive: 0 | inactive: 0 | inactive: 0 | inactive: 0 | inactive: 0 | inactive: 0 |
| N#Cc1cccc(-c2c[nH]c3ncnc(N4CCOCC4)c23)c1 (10 µM) | inactive: 0 | inactive: 0 | inactive: 0 | inactive: 0 | inactive: 0 | inactive: 0 | inactive: 0 | inactive: 0 | inactive: 0 | inactive: 0 |
| O=C(O)c1cc(O)ccc1O [2,5-Dihydroxybenzoic acid] (10 µM) | inactive: 0 | inactive: 0 | inactive: 0 | inactive: 0 | inactive: 0 | inactive: 0 | inactive: 0 | inactive: 0 | inactive: 0 | inactive: 0 |

Among those listed so far, these have a CF3 group.

| Compound | kinase-Nluc reporter destabilization hit call (ERN1) | kinase-Nluc reporter destabilization hit call (FGFR1) | kinase-Nluc reporter destabilization hit call (FGFR2) | kinase-Nluc reporter destabilization hit call (FGFR3) | kinase-Nluc reporter destabilization hit call (FGR) | kinase-Nluc reporter destabilization hit call (FLT3) | kinase-Nluc reporter destabilization hit call (FYN) | kinase-Nluc reporter destabilization hit call (GSK3A) | kinase-Nluc reporter destabilization hit call (HER2) | kinase-Nluc reporter destabilization hit call (INSRR) |
| --- | --- | --- | --- | --- | --- | --- | --- | --- | --- | --- |
| O=[N+]([O-])c1cc(C(F)(F)F)cc([N+](=O)[O-])c1NNC(=S)Nc1ccc(F)cc1 (10 µM) | inactive: 0 | inactive: 0 | inactive: 0 | inactive: 0 | inactive: 0 | inactive: 0 | inactive: 0 | inactive: 0 | inactive: 0 | inactive: 0 |
| CC(C)(C)NC(=O)c1cncn1C1CCN(c2ccc(-c3nnc(C(F)(F)F)o3)cn2)CC1 (10 µM) | inactive: 0 | inactive: 0 | inactive: 0 | inactive: 0 | inactive: 0 | inactive: 0 | inactive: 0 | inactive: 0 | inactive: 0 | inactive: 0 |
| O=C(Nc1ccc(F)cc1F)[C@H](NC(=S)Nc1cc(C(F)(F)F)cc(C(F)(F)F)c1)c1ccccc1 (2.5 µM) | inactive: 0 | inactive: 0 | inactive: 0 | inactive: 0 | inactive: 0 | inactive: 0 | inactive: 0 | inactive: 0 | inactive: 0 | inactive: 0 |
| COC1(C(=O)N2Cc3nc(Cl)nc(N[C@H](C)c4cc(N)cc(C(F)(F)F)c4)c3C2)CCOCC1 (10 µM) | inactive: 0 | inactive: 0 | inactive: 0 | inactive: 0 | inactive: 0 | inactive: 0 | inactive: 0 | inactive: 0 | inactive: 0 | inactive: 0 |
